This series deals with T1, Bpur (Borrelia burgdorferi B31) (UniProt O51076).
T1 sequence (looked up): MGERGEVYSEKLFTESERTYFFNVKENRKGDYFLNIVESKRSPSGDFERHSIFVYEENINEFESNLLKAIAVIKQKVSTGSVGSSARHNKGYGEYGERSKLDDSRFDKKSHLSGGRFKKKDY
Nature of the series: EMSA. Conditions: EMSA: 50 mM Tris pH 7.5, 25 mM KCl, 1 mM MgCl2, 100 nM DTT, 10% glycerol, 0.01% Tween 20, 0.1% PMSF, temperature not stated, RNA/ssDNA probes preheated at 56 C, recombinant protein, residues 1-122.

For at least one entry, the source does not settle the construct or the ends of the probe. Protein sequences can lack the tags named with them.

By Kd is commonly meant the free concentration of one partner at which half of the binding sites on the other are occupied at equilibrium, for simple one-to-one binding. With “AATGGAGAGATTTTGGGGAGTTGTTTAAAATTACATTTGCGTTTTGTTAAAATG (double strand) [Bio-dsDNA]”, the Kd (label: 5' biotin (one strand)) came to 127 nM.
As for “AATGGAGAGATTTTGGGGAGTTGTTTAAAATTACATTTGCGTTTTGTTAAAATG [Bio-sense-ssDNA]”, the Kd (label: 5' biotin, single-stranded DNA) is 393 nM.
